This is an account of results in PubChem BioAssay AID1487 (National Center for Advancing Translational Sciences (NCATS), 2009).

The other results are listed elsewhere or left out. Further columns of the screen follow, without active or inactive calls. Compounds called inactive in the main read-out are mostly missing here. The note in brackets gives the kind of curve behind each potency; many fits are weak.

The experiment can be described thus: qHTS Assay for Modulators of Lamin A Splicing. As to conditions: HeLa LMNA splicing GFP/RFP minigene ratio, 48 h. The procedure, abridged:
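S3 HeLa stable clones carrying a lamin A-EGFP splicing minigene plus DsRed2 were seeded at 600 cells/well in Opti-MEM with 2% FBS, pin-dosed and incubated 48 h at 37°C. Acumen cytometry (488 nm) gave the GFP/RFP total-intensity ratio.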

Setting [1] is: measured here: RFP viability control channel.
Setting [2] is: measured here: GFP splicing reporter channel.

A word on the AC50: it is the midpoint of the concentration-response curve, whichever way the signal moves.

For the compound `CCC(C)NC(=O)CSc1nc2n[nH]c(C)c2c(=N)n1-c1ccc(OC)cc1` (stereo unspecified), the AC50 under setting [1] was 10 µM [rising, partial curve, poor fit]. For `CCNC(=O)[C@H]1O[C@@H](n2cnc3c(N)nc(NCCc4ccc(CCC(=O)O)cc4)nc32)[C@H](O)[C@H]1O`, under setting [2], the concentration at half-maximal activity (AC50) is 0.00447 µM [falling, full curve, poor fit]. As to `O=C1c2ccccc2C(O)N1Cc1ccccc1Cl` (stereo unspecified), the AC50 under setting [1] is 12.6 µM [rising, partial curve]. As to `Cc1ccccc1-c1ccc2ncnc(NC3CC3)c2c1`, the AC50 by setting is: under setting [2], 11.2 µM [falling, partial curve]; under setting [1], 11.2 µM [falling, partial curve]. In the case of `CCC(C)N1C(=O)S/C(=C/c2ccc(Sc3nc4ccccc4[nH]3)o2)C1=O` (stereo unspecified), the half-maximal activity concentration (AC50) is 7.94 µM [falling, partial curve] under setting [2] and 17.8 µM [falling, single point] under setting [1]. As to `CC(=O)c1ccc(N2CCN(c3ccc(NC(=O)c4ccc(F)cc4)cc3C(=O)O)CC2)cc1`, the half-maximal activity concentration (AC50) under setting [1] is 2.51 µM [falling, partial curve, poor fit].

Consider `C=CCn1c(NC(=O)c2ccc(C)cc2)c(C#N)sc1=N`, for which, under setting [1], the half-maximal activity concentration (AC50) was 1.26 µM [falling, full curve]. As for `Cc1ccc(OCCSc2nc(NC(C)C)nc(NC(C)C)n2)cc1`, the AC50 under setting [2] is 22.4 µM [rising, single point] and the AC50 under setting [1] was 35.5 µM [rising, single point]. In the case of `CCCOc1ccc(/C=c2\sc3ncnn3c2=O)cc1`, the AC50 under setting [2] is 3.16 µM [rising, single point]. `O=C(NCCNCC(O)COc1ccc(O)cc1)N1CCOCC1` (stereo unspecified): the half-maximal activity concentration (AC50) under setting [2] is 11.2 µM [rising, partial curve, poor fit] and the concentration at half-maximal activity (AC50) under setting [1] was 8.91 µM [rising, partial curve, poor fit]. `O=C(Nc1ccc(S(=O)(=O)N2CCc3ccccc32)cc1)c1ccc2c(c1)OCO2`: the AC50 under setting [1] is 14.1 µM [rising, partial curve].

As to `CC1CCc2sc(C(=O)Nc3ccc(C(N)=O)cc3)cc2C1` (stereo unspecified), under setting [1], the half-maximal activity concentration (AC50) was 6.31 µM [falling, partial curve]. Consider `CN(/N=C/c1cc([N+](=O)[O-])ccc1O)c1ccccc1`, for which the half-maximal activity concentration (AC50) runs as follows: under setting [2], 3.55 µM [falling, full curve]; under setting [1], 7.08 µM [falling, partial curve, poor fit]. As to `N#Cc1c(-c2ccccc2)c(-c2ccccc2)nn(CC(=O)NNC(=O)Nc2ccc(Cl)c(Cl)c2)c1=O`, the concentration at half-maximal activity (AC50) reads like this: under setting [2], 35.5 µM [falling, single point]; under setting [1], 35.5 µM [falling, single point]. `O=C(Cc1ccccc1)N(Cc1cccnc1)c1nc2c(F)cc(F)cc2s1`: under setting [2], the AC50 was 20 µM [falling, partial curve, poor fit].
